Measurements published in article PMC10901513.
No constants are given. Whether binding was seen depends on the method and setting. In cells and extracts the contact can be indirect. Some binding calls cover weakened binding; strength is not graded here.

By UniProt entry, the sequences of proteins in these tests, tags left out. Where a name states a change or a piece, a line headed by the entry shows the natural chain unless it says otherwise.
UniProt Q15910: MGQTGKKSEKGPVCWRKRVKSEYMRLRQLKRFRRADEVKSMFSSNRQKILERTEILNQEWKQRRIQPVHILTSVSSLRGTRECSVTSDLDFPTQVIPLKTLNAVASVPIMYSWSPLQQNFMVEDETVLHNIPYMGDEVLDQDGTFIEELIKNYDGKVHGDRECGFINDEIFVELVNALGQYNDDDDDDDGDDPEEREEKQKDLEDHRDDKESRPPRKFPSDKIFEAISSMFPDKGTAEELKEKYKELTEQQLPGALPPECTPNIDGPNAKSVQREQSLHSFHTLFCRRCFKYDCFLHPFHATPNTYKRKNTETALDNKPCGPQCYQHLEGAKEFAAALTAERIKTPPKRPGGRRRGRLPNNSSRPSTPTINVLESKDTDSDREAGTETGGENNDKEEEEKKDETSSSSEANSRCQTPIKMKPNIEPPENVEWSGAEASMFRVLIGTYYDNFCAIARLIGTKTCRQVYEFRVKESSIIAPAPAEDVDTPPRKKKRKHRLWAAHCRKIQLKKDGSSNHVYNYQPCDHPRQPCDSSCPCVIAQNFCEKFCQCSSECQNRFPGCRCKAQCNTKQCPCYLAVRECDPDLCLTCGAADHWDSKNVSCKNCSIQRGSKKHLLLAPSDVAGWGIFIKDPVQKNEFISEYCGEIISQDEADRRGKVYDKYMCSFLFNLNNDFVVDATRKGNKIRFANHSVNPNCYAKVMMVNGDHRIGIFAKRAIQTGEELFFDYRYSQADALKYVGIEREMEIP

Legend:
[1] = biological target: HA-tagged EZH2 K20R mutant (human) (UniProt Q15910); assay: co-IP; 293T cells co-transfected with HA-EZH2 or HA-K20R and Set7 or empty vector; lysates immunoprecipitated with anti-HA, blotted with anti-L3MBTL3 and anti-HA
[2] = biological target: HA-tagged EZH2, wild type (human) (UniProt Q15910); assay: as above
[3] = biological target: EZH2 (enhancer of Zeste homolog 2), mouse, wild type (mouse (endogenous in mouse embryos and MEFs)), Q61188; assay: co-IP; lysates of primary Ezh2 wild-type and K20R mutant MEFs immunoprecipitated with anti-EZH2, blotted for histone H3, SUZ12 and EED; K20R MEFs also with or without MK2206 (2 uM, 4 hr); settings: remark: other sources report otherwise

B1: L3MBTL3, human, endogenous (protein, UniProt Q96JM7 1-780)
chain: MTESASSTSGQEFDVFSVMDWKDGVGTLPGSDLKFRVNEFGALEVITDENEMENVKKATATTTWMVPTAQEAPTSPPSSRPVFPPAYWTSPPGCPTVFSEKTGMPFRLKDPVKVEGLQFCENCCQYGNVDECLSGGNYCSQNCARHIKDKDQKEERDVEEDNEEEDPKCSRKKKPKLSLKADTKEDGEERDDEMENKQDVRILRGSQRARRKRRGDSAVLKQGLPPKGKKAWCWASYLEEEKAVAVPAKLFKEHQSFPYNKNGFKVGMKLEGVDPEHQSVYCVLTVAEVCGYRIKLHFDGYSDCYDFWVNADALDIHPVGWCEKTGHKLHPPKGYKEEEFNWQTYLKTCKAQAAPKSLFENQNITVIPSGFRVGMKLEAVDKKNPSFICVATVTDMVDNRFLVHFDNWDESYDYWCEASSPHIHPVGWCKEHRRTLITPPGYPNVKHFSWDKYLEETNSLPAPARAFKVKPPHGFQKKMKLEVVDKRNPMFIRVATVADTDDHRVKVHFDGWNNCYDYWIDADSPDIHPVGWCSKTGHPLQPPLSPLELMEASEHGGCSTPGCKGIGHFKRARHLGPHSAANCPYSEINLNKDRIFPDRLSGEMPPASPSFPRNKRTDANESSSSPEIRDQHADDVKEDFEERTESEMRTSHEARGAREEPTVQQAQRRSAVFLSFKSPIPCLPLRWEQQSKLLPTVAGIPASKVSKWSTDEVSEFIQSLPGCEEHGKVFKDEQIDGEAFLLMTQTDIVKIMSIKLGPALKIFNSILMFKAAEKNSHNEL
B1 was tested, and the binding [1] was “no binding” and the binding [2] was “binds”.

B2: SUZ12 (suppress of Zeste 12), mouse, Q80U70 1-741 (protein)
chain: MAPQKHGGGGGGGSGPSAGSGGGGFGGSAAAVAAAASGGKSGGGGCGGGGSYSASSSSAAAAAAAAGAAVLPVKKPKMEHVQADHELFLQAFEKPTQIYRFLRTRNLIAPIFLHRTLTYMSHRNSRTSIKRKTFKVDDMLSKVEKMKGEQESHSLSAHLQLTFTGFFHKNDKPSQNSENEQNSVTLEVLLVKVCHKKRKDVSCPIRQVPTGKKQVPLNPDLNQTKPGNFPSLAVSSNEFEPSNSHMVKSYSLLFRVTRPGRREFNGMINGETNENIDVSEELPARRKRNREDGEKTFVAQMTVFDKNRRLQLLDGEYEVAMQEMEECPISKKRATWETILDGKRLPPFETFSQGPTLQFTLRWTGETNDKSTAPVAKPLATRNSESLHQENKPGSVKPAQTIAVKETLTTELQTRKEKDNSNESRQKLRIFYQFLYNNNTRQQTEARDDLHCPWCTLNCRKLYSLLKHLKLCHSRFIFNYVYHPKGARIDVSINECYDGSYAGNPQDIHRQPGFAFSRNGPVKRTPITHILVCRPKRTKASMSEFLESEDGEVEQQRTYSSGHNRLYFHSDTCLPLRPQEMEVDSEDEKDPEWLREKTITQIEEFSDVNEGEKEVMKLWNLHVMKHGFIADNQMNHACMLFVENYGQKIIKKNLCRNFMLHLVSMHDFNLISIMSIDKAVTKLREMQQKLEKGESATPSNEEIAEEQNGTANGFSETNSKEKALETDGVSGVPKQSKKQKL
B2 was tested, and the binding [3] was “binds”.
